# Library screen at single concentrations

From ChEMBL document CHEMBL3988442, “University of Dundee, Small-Polar-MMV Screening Library” (2021).

Results are given as percent effect. The record does not define 0% and 100%; most values in the screen are far below 50% and negative numbers occur (in some assays of this library far below -100). The compounds are a random part of those screened. Two or more numbers in one place are separate tests of the same structure; such repeats can differ widely.

Mtb cholesterol medium: 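Whole-cell growth test on Mycobacterium tuberculosis, read after 4 days in a medium based on cholesterol and the lipid DPPC; the read-out is not stated. Tested at 50 µM. Direction is inferred from retests: higher values go with more growth inhibition. Of about 69,000 compounds tested this way, about 370 (0.54%) reached 50% or more in at least one test.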
Mtb glucose medium: 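Whole-cell growth test on Mycobacterium tuberculosis, read after 3 days in glucose-containing 7H9 medium; the read-out is not stated. Tested at 50 µM. Higher reads as more growth inhibition (inferred: compounds with an IC50 in retests scored well above the rest). About 69,000 compounds were tested under these conditions; 1.1% (about 760) showed 50% or more at least once.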

CC1(C)CNC(=O)CN(C(=O)CCc2ccccc2)C1 gave Mtb cholesterol medium: -4.143%; Mtb glucose medium: 13.15%. For CC1CCCCN1C(=O)COc1nc(Cc2ccc(F)cc2)no1 (centres undefined) the result was Mtb cholesterol medium: -8.239%; Mtb glucose medium: 16.57%. Result for CC(=O)N1CCN(Cc2nnc(C(C)(C)C)o2)CC1 was Mtb cholesterol medium: -14.83%; Mtb glucose medium: -21.78%. CC(C)=CCN1CCN(C(=O)C2CC2)CC1 gave Mtb cholesterol medium: -23.31%; Mtb glucose medium: -15.25%. CN1CCOC(C(=O)Nc2nc(-c3ccc(Cl)cc3)n[nH]2)C1 (centres undefined) gave Mtb cholesterol medium: -1.005%; Mtb glucose medium: -0.09499% & -2.655%. With CCc1cc(CN(C)C(=O)c2nnc(CN(C)C)o2)on1 the screen gave Mtb cholesterol medium: 1.827%; Mtb glucose medium: -13.79%. For O=C(CSCc1ccncc1)NCC1CCN(C2CC2)C1 (centres undefined) the result was Mtb cholesterol medium: 2.363%; Mtb glucose medium: 21.97%. For Cc1cc(N)nc(SC2CCCN(Cc3ccccc3)C2=O)n1 (centres undefined) the result was Mtb cholesterol medium: 0.09591%; Mtb glucose medium: 12.46%.

With Cc1c(C(C)NC(=O)Nc2ccc(F)c(F)c2)cnn1C (centres undefined) the screen gave Mtb cholesterol medium: -14.42%; Mtb glucose medium: 10.05%. O=C(O)c1ccccc1-c1c(-c2ccccc2)ncn1C[C@H]1CCCN1 gave Mtb cholesterol medium: -18.92%; Mtb glucose medium: -20.63%. CSCCC(=O)N[C@H]1CC[C@H](Nc2nccc(-c3ccncc3)n2)C1 read Mtb cholesterol medium: -29.17%; Mtb glucose medium: -13.61%. For O=C(Nc1ccc(CCN2CCOCC2)cc1)C1CCC1 the result was Mtb cholesterol medium: -17.11%; Mtb glucose medium: -27.22%. CC(C)CNC(=O)CN1CCCC(c2ccc(C(=O)O)cc2)C1 (centres undefined) gave Mtb cholesterol medium: -17.63%; Mtb glucose medium: -4.483%. For CCCN(CCC)c1ncc(S(=O)(=O)c2ccc(OC)cc2)c(N)n1 the result was Mtb cholesterol medium: -10.34%; Mtb glucose medium: 8.164% & 5.258%. Nc1ncc(CN2CCC(CCC(=O)NC3CC3)CC2)cn1 read Mtb cholesterol medium: 15.38%; Mtb glucose medium: -2.374%. COc1c(F)cc(NC(=O)N2CCC(CSC)C2)cc1F (centres undefined) gave Mtb cholesterol medium: 1.043%; Mtb glucose medium: 10.39% & 9.664%.

For Fc1ccc(CN2CCC3(CC2)CN(c2ccccn2)CCO3)cc1.O=C(O)C(F)(F)F.O=C(O)C(F)(F)F the result was Mtb cholesterol medium: -1.585%; Mtb glucose medium: 13.79% & 5.317%. With Cc1cccc(C)c1OCC(=O)NS(=O)(=O)c1c(C)noc1C the screen gave Mtb cholesterol medium: -7.203%; Mtb glucose medium: -16.78%. Cc1cccc(C2(CNC(C)c3nnc(C)o3)CCCC2)c1 (centres undefined) gave Mtb cholesterol medium: -0.3027%; Mtb glucose medium: 3.938% & -12.8%. For COc1cccc(C)c1C(=O)N1CCc2ncnc(NCCO)c2CC1 the result was Mtb cholesterol medium: -2.481%; Mtb glucose medium: -0.7638% & -4.887%. For O=C(NCCSCc1ccco1)c1ccc(N2CCOCC2)cc1 the result was Mtb cholesterol medium: 0.475%; Mtb glucose medium: 5.63% & 9.511%. Cc1nn(C)c(C)c1CN(C)C(=O)C1COc2ccccc2C1 (centres undefined) read Mtb cholesterol medium: 3.43% & 2.585%; Mtb glucose medium: 10.76% & 2.051%. CC(=O)N1Cc2ccccc2C[C@H]1C(=O)N(C)CCc1ccccn1 read Mtb cholesterol medium: -7.76%; Mtb glucose medium: -3.37% & -8.143%. Cc1ccc(CN2CCCn3c(nc(CN4CCCC4)cc3=O)C2)s1.O=C(O)C(F)(F)F.O=C(O)C(F)(F)F gave Mtb cholesterol medium: -11.27%; Mtb glucose medium: -11.13%.

COc1ccccc1N1CCN(c2nc(N)nc3[nH]cnc23)CC1 read Mtb cholesterol medium: -5.321%; Mtb glucose medium: -18.96%. O=C(O)C(F)(F)F.[H][C@@]12CCN(Cc3ccco3)C[C@]1([H])[C@@H](CNC(=O)c1ccnnc1)OC2 gave Mtb cholesterol medium: 14.03%; Mtb glucose medium: -13.11%. With O=C1CN(C(=O)c2ccc(Cl)cc2)CC(O)CN1Cc1cccs1 (centres undefined) the screen gave Mtb cholesterol medium: 8.631%; Mtb glucose medium: 24.4%. Cc1nn(C)c2c(N3CCN(C(=O)C4CCCO4)CC3)ncnc12 (centres undefined) read Mtb cholesterol medium: -3.088%; Mtb glucose medium: 2.869%. Result for O=C(O)C(F)(F)F.O=C(O)C(F)(F)F.O=C(O)c1cc2c(nc1N1CCCC1)CCN(C1CCOCC1)CC2 was Mtb cholesterol medium: 33.1% & -10.29%; Mtb glucose medium: -42.68% & -8.217%. With CN(C)C(C(=O)NCCSc1ncn[nH]1)c1cccc(F)c1 (centres undefined) the screen gave Mtb cholesterol medium: -25.71% & -2.822%; Mtb glucose medium: -35.64%. With CNC(=O)c1noc(CN2CC[C@](C)(O)[C@H](C)C2)n1 the screen gave Mtb cholesterol medium: 0.06745%; Mtb glucose medium: -6.771% & -3.781%. With CC(C)c1nn(C)cc1CNC1CCOc2ccccc21.Cl (centres undefined) the screen gave Mtb cholesterol medium: -8.606%; Mtb glucose medium: -9.808% & -28.64%.

Result for FC(F)(F)Oc1cccc(CNC[C@H]2Cn3ccnc3CO2)c1 was Mtb cholesterol medium: -1.272%; Mtb glucose medium: 8.959% & 4.31%. COc1c(C)cnc(CN2CCCC2c2noc(C)n2)c1C (centres undefined) gave Mtb cholesterol medium: -27.82%; Mtb glucose medium: -24.6%. Cc1cc(C(=O)N[C@H](C)c2onc(-c3cccnc3)c2C(=O)O)c(C)o1.Cl read Mtb cholesterol medium: 5.478%; Mtb glucose medium: 0.5415% & 2.171%. Result for OCc1cn(CC2CCN(C3CCSC3)CC2)nn1 (centres undefined) was Mtb cholesterol medium: 3.27%; Mtb glucose medium: 7.156%. With COc1ccccc1C1(CNc2cn[nH]c(=O)c2Cl)CCOCC1 the screen gave Mtb cholesterol medium: -15.34%; Mtb glucose medium: 1.314%. With O=C(O)c1cc(S(=O)(=O)Nc2cccc(F)c2F)cc2c1OCCO2 the screen gave Mtb cholesterol medium: 3.608%; Mtb glucose medium: 10.03%. Result for COCc1cccc(S(=O)(=O)NCc2cnn(C)c2C)c1 was Mtb cholesterol medium: -3.952%; Mtb glucose medium: -13.33%. For [H][C@@]12CN(Cc3ccncc3)C[C@]1([H])N(CCCN1CCOCC1)C(=O)O2 the result was Mtb cholesterol medium: 7.44% & -2.235%; Mtb glucose medium: -2.512%.

With CSCC(C)CNC(=O)N1CCSC(C)(C)C1 (centres undefined) the screen gave Mtb cholesterol medium: 8.648%; Mtb glucose medium: -0.4907%. For OC1(CNCc2ccc(F)c(C(F)(F)F)c2)CCSCC1 the result was Mtb cholesterol medium: 15.28%; Mtb glucose medium: 6.806% & -1.762%. For CCOC[C@@H]1CCC[C@@]12CN(Cc1cccnc1)CCO2 the result was Mtb cholesterol medium: 6.96% & -14.01%; Mtb glucose medium: 1.387%. For CS(=O)(=O)N1CCC2(CC1)CC(NCC1CC1)c1ccccc12.O=C(O)C(F)(F)F (centres undefined) the result was Mtb cholesterol medium: 0.8016%; Mtb glucose medium: 21.49%. With COc1ccc2c(c1)CN(CC1CC1)C(=O)CCN2CC(C)(C)O the screen gave Mtb cholesterol medium: -13.04%; Mtb glucose medium: -7.985%.

Once more, the final 5:

SMILES,Mtb cholesterol medium,Mtb glucose medium
CSCC(C)CNC(=O)N1CCSC(C)(C)C1 (centres undefined),8.648%,-0.4907%
OC1(CNCc2ccc(F)c(C(F)(F)F)c2)CCSCC1,15.28%,6.806% & -1.762%
CCOC[C@@H]1CCC[C@@]12CN(Cc1cccnc1)CCO2,6.96% & -14.01%,1.387%
CS(=O)(=O)N1CCC2(CC1)CC(NCC1CC1)c1ccccc12.O=C(O)C(F)(F)F (centres undefined),0.8016%,21.49%
COc1ccc2c(c1)CN(CC1CC1)C(=O)CCN2CC(C)(C)O,-13.04%,-7.985%